Experimental data taken from PubChem BioAssay AID2685 (National Center for Advancing Translational Sciences (NCATS), 2010).
The other results are listed elsewhere or left out. Further columns of the screen follow, without active or inactive calls. Most of these compounds were active or inconclusive in the main read-out, so they are no random draw. The note in brackets gives the kind of curve behind each potency; many fits are weak.

Test: qHTS Assay for Lipid Storage Modulators in Drosophila S3 Cells;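 as to cell number change: cells counted by Cell Tracker Red CMTPX staining in the red channel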
Conditions: BODIPY lipid droplet fluorescence, 18-24 h; for cell number change: measured here: cell count max response, cells fed with added oleic acid
Summary of the method: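 Laser-scanning cytometry quantifies lipid droplet accumulation (500–530 nm total intensity; droplet/cell object ratio) in oleic acid-fed (400 uM added) Drosophila S3 cells treated with a concentration series. 20 uM Triacsin C defined 100% inhibition.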

[1] = measured here: lipid fluorescence (Fed channel) AC50, cells fed with added oleic acid
[2] = measured here: cell number channel AC50, cells fed with added oleic acid

Row | SMILES | AC50 [1] | cell number change | AC50 [2]
1 | Clc1ccc(CNCC2CCCO2)cc1 (stereo not drawn) | 9.2 µM [rising, single point] |  | 
2 | COc1ccc(C(=O)N/C(=C\c2ccc(OC)c(OC)c2)C(=O)N2CCCCC2)cc1 | 5.8 µM [rising, full curve, poor fit] | 3.48% | 
3 | CSc1nc(C2CC2)cc(-c2cccs2)c1C#N |  | -2.79% | 0.00461 µM [rising, full curve, poor fit]
4 | CCOC(=O)C1=C(c2ccccc2)Nc2ncnn2C1c1ccc(O)cc1 (stereo not drawn) | 0.82 µM [rising, full curve, poor fit] | 20.6% | 0.651 µM [rising, full curve, poor fit]
5 | CCOC(=O)C(=Cc1cn(C)c2ccc(S(=O)(=O)N(C)C)cc12)C(=O)OCC | 29.1 µM [falling, single point] | -18.6% | 3.66 µM [falling, single point]
6 | CCSc1nc2ccccc2[nH]1 | 2.31 µM [falling, partial curve] | 6.43% | 
7 | CCn1nc(C(=O)N2CCc3ccccc32)c2ccccc2c1=O | 0.184 µM [falling, full curve, poor fit] | 11.8% | 
8 | CC1(c2ccc3c(c2)OCCCO3)NC(=O)N(CC(=O)Nc2cccc(C#N)c2)C1=O (stereo not drawn) | 1.84 µM [rising, partial curve, poor fit] | -11.6% | 
9 | COc1cc2nc(N3CCN(C(=O)OCc4ccccc4)[C@H](C(=O)NC(C)(C)C)C3)nc(N)c2cc1OC | 2.31 µM [rising, partial curve] | 19.7% | 
10 | COc1cc(NC(=O)CSc2nnc(-c3cc(C)on3)o2)cc(OC)c1 |  | 34.6% | 0.00731 µM [rising, full curve, poor fit]
11 | COc1ccc(/C=N/NC(=O)CCc2n[nH]c(=O)[nH]c2=O)cc1OC | 0.0651 µM [falling, full curve, poor fit] | 3.32% | 
12 | CCn1c(SCc2ccc(Cl)cc2Cl)nc2nc3c(cc2c1=O)CCCC3 | 0.82 µM [rising, full curve, poor fit] | 3.72% | 
13 | Cc1cccc(CS(=O)(=O)Cc2ccc(C(=O)NCC3CCCO3)o2)c1 (stereo not drawn) |  | 128% | 20.6 µM [rising, single point]
14 | CCOC(=O)COc1c(/C=N\OC)cc(Cl)cc1OC |  | -80.4% | 29.1 µM [falling, single point]
15 | CC(C)(C)N1CC(c2nc3ccccc3n2Cc2ccc(Cl)cc2)CC1=O (stereo not drawn) |  | 23.7% | 0.326 µM [rising, full curve, poor fit]
16 | Cc1ccc(C(c2c(C)nn(-c3ccccc3)c2N)c2c(C)nn(-c3ccccc3)c2N)cc1 |  | 19.9% | 
17 | O=C(NCCn1cc(SCC(=O)N2CCOCC2)c2ccccc21)c1c(F)cccc1F |  | 17.9% | 
18 | O=c1nc(SCc2c(F)cccc2Cl)nc(-c2ccccc2)[nH]1 |  | 6.25% | 0.82 µM [rising, single point]
19 | O=C(N/N=C1\C/C(=N\NC(=O)c2ccncc2)c2ccccc21)c1ccncc1 | 9.2 µM [rising, partial curve, poor fit] | 29.9% | 

Row | SMILES | AC50 [1] | cell number change | AC50 [2]
20 | Cc1c(C(=O)O)cccc1-n1c(C)cc(/C=N/NC(=O)c2cc3ccccc3o2)c1C |  | 14.9% | 0.731 µM [rising, partial curve, poor fit]
21 | CC(CC(=O)NC1CCCC1)c1ccccc1 (stereo not drawn) |  | 9.6% | 0.103 µM [falling, full curve]
22 | Cn1c(O)c(C2=c3ccccc3=NC2=O)[nH]c1=S | 29.1 µM [rising, single point] | 110% | 16.4 µM [rising, partial curve]
23 | O=[N+]([O-])c1ccc(S(=O)(=O)Nc2ccc(-c3ccc(N4CCCC4)nn3)cc2)cc1 | 6.51 µM [rising, single point] | 42% | 6.51 µM [rising, full curve]
24 | COC(=O)c1ccc(-c2noc(CN(Cc3ccccn3)CC3CCCO3)n2)cc1 (stereo not drawn) |  | -13% | 
25 | COc1ccc([C@H]2CC(=O)C=C(c3cc(C=O)ccc3OC)C2)cc1 |  | -13.3% | 
26 | CC(CCc1ccccc1)NC(=O)C(=O)NCc1ccccc1 (stereo not drawn) | 2.31 µM [rising, single point] | 33.3% | 29.1 µM [rising, single point]
27 | COc1ccc(N2CCN(C(CNS(=O)(=O)c3cccs3)c3cccnc3)CC2)cc1 (stereo not drawn) | 0.206 µM [rising, full curve] | 56.5% | 2.06 µM [rising, partial curve, poor fit]
28 | COc1ccc(Cn2nnnc2C(c2ccc(C)cc2)N2CCN(C3CCCC3)CC2)cc1 (stereo not drawn) | 0.0184 µM [falling, full curve] | -1.52% | 
29 | CC(C)CC(=O)N1CCC(O)(CS(=O)(=O)Cc2ccccc2Cl)CC1 |  |  | 4.11 µM [falling, single point]
30 | COCCNC(C)C(=O)C12CC3CC(CC(C3)C1)C2 (stereo not drawn) |  | -2.71% | 
31 | Nc1nonc1-n1nnc(C(=O)N/N=C/c2ccc(OCc3ccccc3)cc2)c1COc1ccc(F)cc1 | 0.731 µM [rising, partial curve] | 5.22% | 
32 | COc1cc(NC(=O)CSc2nc3[nH]ncc3c(=O)n2-c2ccccc2C)cc(OC)c1OC | 4.61 µM [rising, partial curve] | 32% | 4.61 µM [rising, partial curve]
33 | Cc1ccc(NC(=O)C2C3C=CC4(O3)C2C(=O)N(CCN2CCOCC2)C4C(=O)NC2CCCCC2)cc1C (stereo not drawn) | 29.1 µM [rising, partial curve] | 39.5% | 
34 | CC1(c2ccc(Cl)cc2Cl)NC(=O)N(CC(=O)NC2CCCCC2)C1=O (stereo not drawn) | 0.13 µM [rising, full curve, poor fit] | 2.26% | 
35 | Fc1ccc(COc2ccc(Br)cc2CNCC2CCCO2)cc1 (stereo not drawn) | 29.1 µM [rising, single point] | 32.4% | 20.6 µM [rising, single point]
36 | COc1cc(Cl)c(NC2=CC(=O)C(=O)c3ccccc32)c(OC)c1 |  |  | 0.164 µM [falling, full curve]
37 | COc1ccc(N(CC(=O)NCc2ccco2)S(C)(=O)=O)cc1 |  |  | 0.58 µM [rising, single point]
